Experimental data: PubChem BioAssay AID1224828 (NIAID, 2016)
Shown is an unselected part of about 17,000 reagents tested. Over the whole deposit, 762 (4.5%) are marked active. 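Active calls include both raised and lowered p65 entry, mostly lowered; wells with fewer than 50 cells lack a z-score.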 Raw values are not corrected between plates. Reagents against one gene are numbered here.

Assay: 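Regulators linking TLR4 signalling to p65 nuclear translocation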 (primary screen)
System: mouse RAW264.7 G9 macrophage reporter cells (GFP-p65, Tnf promoter-mCherry)
Knock-down reagent: siRNA pool against mouse genes, 100 nM
Timing: 2 days siRNA transfection, then 40 min LPS before fixation
Conditions: LPS (Salmonella minnesota R595) at 10 ng/ml
Read-out: 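Microscopy ratio of nuclear to perinuclear-ring GFP-p65 signal, scaled to the plate median; gene score is the average of two replicate robust z-scores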
Scale: p65 translocation robust z-score: higher = more nuclear NF-kappaB p65 after LPS than the plate median; nuclear/cytoplasmic p65 ratio: higher = more nuclear NF-kappaB p65
Call rule: 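Active if robust z is above 3.3 (negative regulators) or below -1.56, the Tlr4 control median (positive regulators); activity score 50 or more; control wells not called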
Meaning of the calls: active = hit (p65 shift raised or lowered); inactive = no clear change

Gene	reagent	p65 translocation robust z-score	nuclear/cytoplasmic p65 ratio, rep 1	nuclear/cytoplasmic p65 ratio, rep 2	low cell count flag	outcome
Or6k14 (GeneID 259162)	1	1.13	1.65	1.35	enough cells to score	inactive
Srebf2 (GeneID 20788)	1	-0.29	1.41	1.61	enough cells to score	inactive
Or10ag60 (GeneID 258835)	1	-0.76	1.5	1.5	enough cells to score	inactive
Or4c104 (GeneID 258450)	1		1.67	1.24	fewer than 50 cells per well; well left out of scoring	inactive
Ajuba (GeneID 16475)	1	0.42	1.62	1.48	enough cells to score	inactive
Plat (GeneID 18791)	1	0.36	1.52	1.48	enough cells to score	inactive
Mrgpra5 (GeneID 404235)	1	-1.13	1.62	1.4	enough cells to score	inactive
Alad (GeneID 17025)	1	0.61	1.7	1.72	enough cells to score	inactive
Fam234a (GeneID 106581)	1	-1.32	1.43	1.46	enough cells to score	inactive
Slc39a7 (GeneID 14977)	1		1.9	0	fewer than 50 cells per well; well left out of scoring	inactive
Pcnt (GeneID 18541)	1	-0.03	1.44	1.2	enough cells to score	inactive
Vmn1r195 (GeneID 171257)	1	-1.01	1.29	1.11	enough cells to score	inactive
Unc5a (GeneID 107448)	1		1.3	1.28	fewer than 50 cells per well; well left out of scoring	inactive
Eng (GeneID 13805)	1	-0.02	1.42	1.4	enough cells to score	inactive
Snrpb2 (GeneID 20639)	1	-1.02	1.31	1.12	enough cells to score	inactive
Mdga1 (GeneID 74762)	1	-0.07	1.6	1.6	enough cells to score	inactive
Wdr77 (GeneID 70465)	1		1.2	1.39	fewer than 50 cells per well; well left out of scoring	inactive
Dnajc17 (GeneID 69408)	1	-0.43	1.21	1.49	enough cells to score	inactive
Scap (GeneID 235623)	1	-0.46	1.42	1.49	enough cells to score	inactive
Phldb1 (GeneID 102693)	1	-0.54	1.49	1.47	enough cells to score	inactive
Ebna1bp2 (GeneID 69072)	1	0.2	1.31	1.39	enough cells to score	inactive
Herpud2 (GeneID 80517)	1		1.33	1.34	fewer than 50 cells per well; well left out of scoring	inactive
Nopchap1 (GeneID 28109)	1	0.26	1.66	1.77	enough cells to score	inactive

Reformatted: results already given.
| Gene | reagent | p65 translocation robust z-score | nuclear/cytoplasmic p65 ratio, rep 1 | nuclear/cytoplasmic p65 ratio, rep 2 | low cell count flag | outcome |
| --- | --- | --- | --- | --- | --- | --- |
| Or10ag60 (GeneID 258835) | 1 | -0.76 | 1.5 | 1.5 | enough cells to score | inactive |
| Or4c104 (GeneID 258450) | 1 | – | 1.67 | 1.24 | fewer than 50 cells per well; well left out of scoring | inactive |
| Ajuba (GeneID 16475) | 1 | 0.42 | 1.62 | 1.48 | enough cells to score | inactive |
| Plat (GeneID 18791) | 1 | 0.36 | 1.52 | 1.48 | enough cells to score | inactive |
| Mrgpra5 (GeneID 404235) | 1 | -1.13 | 1.62 | 1.4 | enough cells to score | inactive |
| Alad (GeneID 17025) | 1 | 0.61 | 1.7 | 1.72 | enough cells to score | inactive |
| Fam234a (GeneID 106581) | 1 | -1.32 | 1.43 | 1.46 | enough cells to score | inactive |

The listing continues.
Gene	reagent	p65 translocation robust z-score	nuclear/cytoplasmic p65 ratio, rep 1	nuclear/cytoplasmic p65 ratio, rep 2	low cell count flag	outcome
Dmtf1 (GeneID 23857)	1		1.53	1.21	fewer than 50 cells per well; well left out of scoring	inactive
Serpina10 (GeneID 217847)	1	-0.35	1.44	1.57	enough cells to score	inactive
Mybph (GeneID 53311)	1	-0.18	1.75	1.57	enough cells to score	inactive
Hba-a1 (GeneID 15122)	1	-0.56	1.36	1.31	enough cells to score	inactive
Mfap5 (GeneID 50530)	1	0.27	1.78	1.57	enough cells to score	inactive
Ppp1r3a (GeneID 140491)	1	-0.46	1.51	1.28	enough cells to score	inactive
Barx1 (GeneID 12022)	1	-1.03	1.44	1.48	enough cells to score	inactive
Zcchc7 (GeneID 319885)	1	0.09	1.54	1.6	enough cells to score	inactive
Zcchc7 (GeneID 319885)	2		1.37	1.44	fewer than 50 cells per well; well left out of scoring	inactive
Zfp867 (GeneID 237775)	1	-0.79	1.5	1.49	enough cells to score	inactive
Cth (GeneID 107869)	1	-0.68	1.28	1.38	enough cells to score	inactive
Tmem114 (GeneID 74720)	1	2.58	1.6	1.61	enough cells to score	inactive
Pcmt1 (GeneID 18537)	1	-0.43	1.38	1.07	enough cells to score	inactive
Serpinb1b (GeneID 282663)	1	-0.41	1.35	1.22	enough cells to score	inactive
Wnt5b (GeneID 22419)	1	0.97	1.72	1.57	enough cells to score	inactive
Adra2a (GeneID 11551)	1	1.32	1.62	1.85	enough cells to score	inactive
Islr (GeneID 26968)	1	-0.12	1.46	1.48	enough cells to score	inactive
Zfp280d (GeneID 235469)	1	-0.3	1.53	1.83	enough cells to score	inactive
Fads6 (GeneID 328035)	1	1.98	1.68	1.82	enough cells to score	inactive
Selplg (GeneID 20345)	1	0.34	1.53	1.67	enough cells to score	inactive
Nenf (GeneID 66208)	1	-1.45	1.44	1.29	enough cells to score	inactive
Eif2ak2 (GeneID 19106)	1	0.75	1.7	1.56	enough cells to score	inactive
Myoz1 (GeneID 59011)	1	-0.3	1.78	1.51	enough cells to score	inactive
Scn5a (GeneID 20271)	1	0.04	1.53	1.23	enough cells to score	inactive
Palmd (GeneID 114301)	1	-0.61	1.39	1.15	enough cells to score	inactive
Ptdss1 (GeneID 19210)	1	-0.17	1.36	1.39	enough cells to score	inactive
Apobec1 (GeneID 11810)	1	0.37	1.69	1.66	enough cells to score	inactive
Mon1a (GeneID 72825)	1		1.1	1.16	fewer than 50 cells per well; well left out of scoring	inactive
Eif3h (GeneID 68135)	1	-0.22	1.52	1.27	enough cells to score	inactive
Anapc16 (GeneID 52717)	1	0.72	1.71	1.87	enough cells to score	inactive
Zbtb41 (GeneID 226470)	1	-1.31	1.23	1.39	enough cells to score	inactive
Nox1 (GeneID 237038)	1	4.62	2.34	2.27	enough cells to score	active
Tmem161b (GeneID 72745)	1		1.12	1.1	fewer than 50 cells per well; well left out of scoring	inactive
Psma1 (GeneID 26440)	1		1.44	1.15	fewer than 50 cells per well; well left out of scoring	inactive
Fhod1 (GeneID 234686)	1	0.47	1.52	1.66	enough cells to score	inactive
Lrrc3 (GeneID 237387)	1	-1.29	1.52	1.31	enough cells to score	inactive
